The values that follow come from patent US11866424B2, “Aggregation-induced emission luminogens for photodynamic therapy” (The Hong Kong University of Science and Technology, priority 2020, dated 2024).

The subject of the data set is HeLa cells. Kind of data set: Photostability under repeated confocal laser scans in stained HeLa cells. The format is cell-based. The conditions noted are these: After 40 times of scan, 22.4 s per scan. An excerpt:
For photostability assay, cells were imaged using a Zeiss Laser Scanning Confocal Microscope and analyzed using ZEN 2009 software (Carl Zeiss). Both TFPy and MitroTracker Green were excited at 488 nm (0.6% laser power). Both TFVP and CellMask Green were excited at 488 nm (0.7% laser power). TPE-TFPy was excited at 488 nm, whereas LysoTracker Green was excited at 514 nm with 1% laser power. The scanning speed was 22.4 s per scan, and the repeated image scans were taken 40 times. The first scan of all the presented photosensitizers were set to 100%, followed by which the pixel intensity values were averaged and plotted against the scan number. The resulting curve represents the photobleaching rate.
Motivated by the excellent targetability and specificity of three diverse organelle-targeting AIEgens, photostability was also carefully investigated as it is an essential parameter to evaluate a fluorescence imaging agent. Photostability assessment was carried out by continuous irradiation and sequential scanning with confocal microscope. […] With HeLa cell imaging and photostability data in hand, additional cellular uptake experiment using 4T1 cell line was performed as preliminary study for in vivo experiment.

Consider `C[n+]1ccc(C=Cc2ccc(-c3ccc(N(c4ccccc4)c4ccccc4)cc3)o2)cc1.F[P-](F)(F)(F)(F)F` [TFPy], for which the “fluorescence intensity loss (photostability)” value is listed as “minimal intensity loss”.

In the case of `C[N+](C)(C)CCC[n+]1ccc(C=Cc2ccc(-c3ccc(N(c4ccccc4)c4ccccc4)cc3)o2)cc1.[Br-].[Br-]` [TFVP], the “fluorescence intensity loss (photostability)” value is given as “minimal intensity loss”. For `C[n+]1ccc(C=Cc2ccc(-c3ccc(N(c4ccccc4)c4ccc(C(=C(c5ccccc5)c5ccccc5)c5ccccc5)cc4)cc3)o2)cc1.F[P-](F)(F)(F)(F)F` [TPE-TFPy] the value was “minimal intensity loss”.
